Some of the results follow.
Compound: CN1CCc2c(c3ccccc3n2Cc2ccc(C(=O)NO)cc2)C1 [Tubastatin A]
Assay: log2 fold change, soluble protein after heating vs DMSO (PISA); higher = thermal stabilisation; K562 lysate, 10 uM; active = over 0.2 and 3.5 SD of the protein, either way, in both replicates (recomputed)
Procedure, shortened: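 K562 pellets were dounce-homogenised in PBS pH 7.4 with 1 mM MgCl2, and the crude extract at 1 mg/mL protein was treated with 10 μM compound for 30 min. Aliquots were heated for 3 min across 48°C-58°C, pooled, and brought to 0.5% NP-40 at 4°C; soluble protein was the supernatant after 21,000xg for 90 min. Soluble protein was quantified by TMTpro 16plex LC-MS/MS with channel sums equalised, and reported as log2 fold change in thermal stability against DMSO controls, with values from duplicates.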

By UniProt entry, the sequences of proteins in these tests, tags left out. Where a name states a change or a piece, a line headed by the entry shows the natural chain unless it says otherwise.
UniProt Q92997: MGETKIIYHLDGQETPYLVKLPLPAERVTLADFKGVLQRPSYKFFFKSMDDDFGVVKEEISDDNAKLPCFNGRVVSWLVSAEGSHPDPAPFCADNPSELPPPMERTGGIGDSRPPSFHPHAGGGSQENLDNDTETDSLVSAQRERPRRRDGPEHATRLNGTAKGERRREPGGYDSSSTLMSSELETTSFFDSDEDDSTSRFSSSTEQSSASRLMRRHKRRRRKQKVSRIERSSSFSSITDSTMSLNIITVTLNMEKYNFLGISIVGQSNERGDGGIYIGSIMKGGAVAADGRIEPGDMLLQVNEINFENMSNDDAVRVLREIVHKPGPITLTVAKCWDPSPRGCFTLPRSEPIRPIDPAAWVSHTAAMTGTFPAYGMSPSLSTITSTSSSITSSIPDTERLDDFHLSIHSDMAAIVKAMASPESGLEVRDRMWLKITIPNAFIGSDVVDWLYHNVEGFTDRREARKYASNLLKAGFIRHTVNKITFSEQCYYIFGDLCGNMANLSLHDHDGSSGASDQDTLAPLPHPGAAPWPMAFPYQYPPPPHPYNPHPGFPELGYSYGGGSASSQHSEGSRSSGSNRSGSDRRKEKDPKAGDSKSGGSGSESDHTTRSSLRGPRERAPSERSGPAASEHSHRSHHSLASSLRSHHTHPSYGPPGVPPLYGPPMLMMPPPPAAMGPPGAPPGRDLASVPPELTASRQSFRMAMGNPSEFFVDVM
UniProt Q9BV94: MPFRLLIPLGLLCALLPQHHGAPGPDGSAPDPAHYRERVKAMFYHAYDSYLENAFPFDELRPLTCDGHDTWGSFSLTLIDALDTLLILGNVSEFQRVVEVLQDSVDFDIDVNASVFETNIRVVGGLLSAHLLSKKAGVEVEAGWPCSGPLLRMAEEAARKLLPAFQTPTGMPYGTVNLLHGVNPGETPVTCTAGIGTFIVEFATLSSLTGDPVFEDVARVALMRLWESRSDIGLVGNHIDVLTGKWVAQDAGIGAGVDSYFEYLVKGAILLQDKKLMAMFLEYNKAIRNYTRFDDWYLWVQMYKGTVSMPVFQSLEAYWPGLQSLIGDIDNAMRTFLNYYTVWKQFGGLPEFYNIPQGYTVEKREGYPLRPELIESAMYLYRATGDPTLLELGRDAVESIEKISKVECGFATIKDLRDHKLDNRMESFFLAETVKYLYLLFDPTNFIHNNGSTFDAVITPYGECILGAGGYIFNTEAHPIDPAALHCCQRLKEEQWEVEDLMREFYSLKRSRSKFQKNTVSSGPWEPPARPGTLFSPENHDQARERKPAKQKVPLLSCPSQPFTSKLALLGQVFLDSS
UniProt Q96G04: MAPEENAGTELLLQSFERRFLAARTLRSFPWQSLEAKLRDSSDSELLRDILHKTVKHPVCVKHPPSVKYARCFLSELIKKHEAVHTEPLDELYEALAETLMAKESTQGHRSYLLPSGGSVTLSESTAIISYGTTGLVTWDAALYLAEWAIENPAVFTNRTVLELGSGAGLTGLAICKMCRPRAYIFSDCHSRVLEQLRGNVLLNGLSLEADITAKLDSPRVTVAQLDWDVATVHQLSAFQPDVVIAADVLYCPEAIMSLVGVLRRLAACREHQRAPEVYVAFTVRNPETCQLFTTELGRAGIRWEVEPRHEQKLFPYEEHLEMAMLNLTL
UniProt O00418: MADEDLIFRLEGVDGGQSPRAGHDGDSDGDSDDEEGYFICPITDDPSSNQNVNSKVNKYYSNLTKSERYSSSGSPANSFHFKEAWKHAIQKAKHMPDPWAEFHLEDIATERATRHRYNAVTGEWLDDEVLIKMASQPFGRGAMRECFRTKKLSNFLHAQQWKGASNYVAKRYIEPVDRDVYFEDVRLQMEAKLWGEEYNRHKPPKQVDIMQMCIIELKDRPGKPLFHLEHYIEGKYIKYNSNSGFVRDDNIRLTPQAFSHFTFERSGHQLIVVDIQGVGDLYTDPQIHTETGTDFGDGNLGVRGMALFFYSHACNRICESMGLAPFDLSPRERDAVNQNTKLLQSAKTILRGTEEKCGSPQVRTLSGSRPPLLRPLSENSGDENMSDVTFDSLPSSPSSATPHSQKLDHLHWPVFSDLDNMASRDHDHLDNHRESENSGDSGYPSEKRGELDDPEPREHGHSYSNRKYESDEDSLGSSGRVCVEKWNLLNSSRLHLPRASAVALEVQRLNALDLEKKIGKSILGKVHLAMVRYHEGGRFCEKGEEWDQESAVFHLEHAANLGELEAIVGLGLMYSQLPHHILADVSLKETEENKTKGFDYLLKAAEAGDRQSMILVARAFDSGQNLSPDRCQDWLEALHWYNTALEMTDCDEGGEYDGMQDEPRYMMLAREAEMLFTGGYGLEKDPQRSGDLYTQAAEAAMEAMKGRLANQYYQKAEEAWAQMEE
UniProt Q9NZJ0: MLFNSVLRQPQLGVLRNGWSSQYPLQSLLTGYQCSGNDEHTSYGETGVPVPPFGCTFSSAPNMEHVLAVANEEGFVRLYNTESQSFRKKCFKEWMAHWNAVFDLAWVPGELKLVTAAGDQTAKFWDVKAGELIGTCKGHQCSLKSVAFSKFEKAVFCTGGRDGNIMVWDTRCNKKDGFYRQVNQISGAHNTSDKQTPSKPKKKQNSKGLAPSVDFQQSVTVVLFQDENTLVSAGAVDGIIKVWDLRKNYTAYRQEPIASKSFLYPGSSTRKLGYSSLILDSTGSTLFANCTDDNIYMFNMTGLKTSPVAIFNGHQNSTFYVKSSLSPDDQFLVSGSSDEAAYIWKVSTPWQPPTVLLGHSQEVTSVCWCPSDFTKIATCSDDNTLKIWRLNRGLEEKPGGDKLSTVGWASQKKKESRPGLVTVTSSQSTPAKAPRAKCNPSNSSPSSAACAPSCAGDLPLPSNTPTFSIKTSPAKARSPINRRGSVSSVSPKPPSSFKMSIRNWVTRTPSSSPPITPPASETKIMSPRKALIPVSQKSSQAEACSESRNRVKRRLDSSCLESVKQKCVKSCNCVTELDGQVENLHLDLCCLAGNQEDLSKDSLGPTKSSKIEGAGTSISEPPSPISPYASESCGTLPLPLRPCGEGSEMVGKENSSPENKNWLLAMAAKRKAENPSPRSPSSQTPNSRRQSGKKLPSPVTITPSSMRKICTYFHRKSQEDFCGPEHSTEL
UniProt P98172: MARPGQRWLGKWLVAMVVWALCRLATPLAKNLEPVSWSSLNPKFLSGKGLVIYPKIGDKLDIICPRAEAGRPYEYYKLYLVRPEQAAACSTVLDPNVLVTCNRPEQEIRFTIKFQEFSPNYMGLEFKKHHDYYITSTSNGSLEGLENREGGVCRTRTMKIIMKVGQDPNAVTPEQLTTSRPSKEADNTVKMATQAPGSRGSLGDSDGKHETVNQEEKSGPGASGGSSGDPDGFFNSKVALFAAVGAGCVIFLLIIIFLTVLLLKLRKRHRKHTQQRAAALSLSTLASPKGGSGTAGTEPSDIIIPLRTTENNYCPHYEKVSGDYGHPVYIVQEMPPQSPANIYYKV
UniProt P51452: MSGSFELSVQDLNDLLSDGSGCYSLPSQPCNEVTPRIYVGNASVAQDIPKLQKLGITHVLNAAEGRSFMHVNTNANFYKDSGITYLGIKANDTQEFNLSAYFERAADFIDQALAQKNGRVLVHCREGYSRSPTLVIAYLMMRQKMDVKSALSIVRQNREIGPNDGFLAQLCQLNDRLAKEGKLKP
UniProt Q96FN9: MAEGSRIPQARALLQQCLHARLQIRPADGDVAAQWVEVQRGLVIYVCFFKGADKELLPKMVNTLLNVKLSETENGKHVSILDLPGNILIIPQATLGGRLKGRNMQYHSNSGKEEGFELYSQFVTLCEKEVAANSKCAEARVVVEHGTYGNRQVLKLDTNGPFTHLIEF
UniProt O60869: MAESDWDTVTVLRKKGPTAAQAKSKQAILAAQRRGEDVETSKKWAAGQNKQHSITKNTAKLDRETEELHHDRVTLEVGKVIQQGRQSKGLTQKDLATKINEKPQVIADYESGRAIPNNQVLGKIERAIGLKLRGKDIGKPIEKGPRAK
UniProt Q16610: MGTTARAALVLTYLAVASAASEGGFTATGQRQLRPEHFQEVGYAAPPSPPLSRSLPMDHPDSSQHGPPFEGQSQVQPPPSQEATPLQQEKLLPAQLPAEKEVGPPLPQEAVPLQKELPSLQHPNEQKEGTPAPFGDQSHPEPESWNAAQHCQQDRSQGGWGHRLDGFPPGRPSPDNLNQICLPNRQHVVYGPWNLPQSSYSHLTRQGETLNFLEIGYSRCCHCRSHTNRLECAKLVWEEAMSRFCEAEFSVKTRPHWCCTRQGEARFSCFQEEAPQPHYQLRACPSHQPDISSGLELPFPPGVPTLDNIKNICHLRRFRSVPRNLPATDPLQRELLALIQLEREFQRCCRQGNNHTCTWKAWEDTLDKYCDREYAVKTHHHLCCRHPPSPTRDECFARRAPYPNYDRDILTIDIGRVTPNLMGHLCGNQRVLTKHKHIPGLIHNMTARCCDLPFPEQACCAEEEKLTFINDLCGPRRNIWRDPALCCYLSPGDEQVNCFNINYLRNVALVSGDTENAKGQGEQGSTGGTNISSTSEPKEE
UniProt Q13409, whole entry, looked up: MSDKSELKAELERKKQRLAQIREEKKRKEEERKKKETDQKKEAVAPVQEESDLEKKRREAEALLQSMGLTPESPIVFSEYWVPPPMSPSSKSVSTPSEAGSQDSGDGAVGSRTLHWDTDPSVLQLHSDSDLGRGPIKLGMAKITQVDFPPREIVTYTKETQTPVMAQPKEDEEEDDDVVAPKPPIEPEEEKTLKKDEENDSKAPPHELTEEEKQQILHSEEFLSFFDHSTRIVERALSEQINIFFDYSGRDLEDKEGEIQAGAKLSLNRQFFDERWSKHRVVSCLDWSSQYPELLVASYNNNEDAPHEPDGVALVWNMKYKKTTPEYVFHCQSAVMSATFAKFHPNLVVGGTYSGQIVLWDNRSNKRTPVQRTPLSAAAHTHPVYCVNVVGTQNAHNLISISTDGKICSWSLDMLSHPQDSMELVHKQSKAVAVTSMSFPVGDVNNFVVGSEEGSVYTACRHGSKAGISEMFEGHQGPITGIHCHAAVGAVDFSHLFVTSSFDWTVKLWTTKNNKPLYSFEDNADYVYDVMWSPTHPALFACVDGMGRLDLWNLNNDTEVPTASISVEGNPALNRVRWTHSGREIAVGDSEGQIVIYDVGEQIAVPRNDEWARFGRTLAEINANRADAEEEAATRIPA
UniProt Q14156: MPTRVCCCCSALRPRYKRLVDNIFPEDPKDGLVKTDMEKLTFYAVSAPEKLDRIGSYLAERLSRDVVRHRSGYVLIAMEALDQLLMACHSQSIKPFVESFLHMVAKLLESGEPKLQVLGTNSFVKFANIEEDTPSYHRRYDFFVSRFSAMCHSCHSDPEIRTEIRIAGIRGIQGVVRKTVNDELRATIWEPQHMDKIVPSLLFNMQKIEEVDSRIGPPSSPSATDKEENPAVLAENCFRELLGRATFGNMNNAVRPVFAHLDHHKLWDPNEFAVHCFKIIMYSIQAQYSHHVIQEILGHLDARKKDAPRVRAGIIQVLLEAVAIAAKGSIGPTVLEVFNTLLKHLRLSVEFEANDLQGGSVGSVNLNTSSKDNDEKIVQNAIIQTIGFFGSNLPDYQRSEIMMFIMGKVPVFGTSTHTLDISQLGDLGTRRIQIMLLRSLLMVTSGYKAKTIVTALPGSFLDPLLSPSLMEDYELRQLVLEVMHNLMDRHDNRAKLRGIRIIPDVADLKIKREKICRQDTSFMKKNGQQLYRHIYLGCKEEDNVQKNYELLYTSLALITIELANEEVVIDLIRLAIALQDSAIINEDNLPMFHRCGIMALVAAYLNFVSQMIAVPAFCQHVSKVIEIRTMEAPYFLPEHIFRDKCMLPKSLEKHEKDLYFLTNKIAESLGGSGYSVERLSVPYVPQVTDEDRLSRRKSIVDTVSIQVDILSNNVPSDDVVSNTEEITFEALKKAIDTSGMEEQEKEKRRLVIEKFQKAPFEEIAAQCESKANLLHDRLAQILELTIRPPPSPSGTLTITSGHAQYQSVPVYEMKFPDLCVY
UniProt Q9C005, whole entry, looked up: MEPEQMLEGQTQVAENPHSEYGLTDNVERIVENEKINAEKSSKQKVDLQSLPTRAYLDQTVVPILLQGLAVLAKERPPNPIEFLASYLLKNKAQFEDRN
UniProt Q9H223: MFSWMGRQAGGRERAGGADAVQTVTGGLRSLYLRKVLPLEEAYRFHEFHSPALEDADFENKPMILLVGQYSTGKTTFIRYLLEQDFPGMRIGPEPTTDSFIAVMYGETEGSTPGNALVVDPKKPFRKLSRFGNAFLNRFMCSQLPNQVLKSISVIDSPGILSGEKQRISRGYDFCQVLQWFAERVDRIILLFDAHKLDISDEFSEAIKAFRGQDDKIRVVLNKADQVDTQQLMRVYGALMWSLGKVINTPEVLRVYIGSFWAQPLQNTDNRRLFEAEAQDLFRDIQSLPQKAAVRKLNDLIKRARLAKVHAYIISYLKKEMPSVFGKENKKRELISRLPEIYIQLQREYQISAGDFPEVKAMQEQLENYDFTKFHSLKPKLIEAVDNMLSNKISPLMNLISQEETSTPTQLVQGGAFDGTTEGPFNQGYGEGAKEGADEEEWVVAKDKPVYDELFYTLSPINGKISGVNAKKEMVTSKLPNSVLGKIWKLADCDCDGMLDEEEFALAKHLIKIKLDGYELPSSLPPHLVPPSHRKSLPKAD

log2 fold change, inactive:
DVL3 (UniProt Q92997) -0.277
DYNC2H1 isoform 2 (UniProt Q8NCM8) 0.005
ECHDC1 (UniProt Q9NTX5) -0.03
EDEM2 (UniProt Q9BV94) -0.044
EEF2KMT (UniProt Q96G04) -0.121
DTYMK (UniProt P23919) -0.095
DUSP22 isoform 2 (UniProt Q9NRW4) -0.079
EHHADH (UniProt Q08426) 0.039
EEF2K (UniProt O00418) -0.131
DTL (UniProt Q9NZJ0) -0.072
EED, A0A5F9ZI63 -0.026
EID1 (UniProt Q9Y6B2) -0.004
EEA1 (UniProt Q15075) 0.043
EFCAB2 isoform 2 (UniProt Q5VUJ9) -0.083
EHBP1 isoform 2 (UniProt Q8NDI1) 0.027
EFNB1 (UniProt P98172) 0.084
DUSP3 (UniProt P51452) 0.029
EHMT1 (UniProt Q9H9B1) -0.033
DPY19L4 (UniProt Q7Z388) 0.003
EDC4 (UniProt Q6P2E9) -0.14
EEF1G isoform 2 (UniProt P26641) -0.053
DTD2 (UniProt Q96FN9) -0.112
EDF1 (UniProt O60869) 0.088
ECM1 isoform 4 (UniProt Q16610) 0.039
DYSF isoform 13 (UniProt O75923) 0.12
DSC2 (UniProt Q02487) 0.132
DYNC1I2 isoform 2 (UniProt Q13409) 0.002
DTX3L (UniProt Q8TDB6) 0.008
EFR3A (UniProt Q14156) -0.018
DPY30 (UniProt Q9C005) 0.054
E4F1 (UniProt Q66K89) -0.071
EHD4 (UniProt Q9H223) -0.102

A portion from the list above:
log2 fold change, inactive:
DUSP3 (UniProt P51452) 0.029
EHMT1 (UniProt Q9H9B1) -0.033
DPY19L4 (UniProt Q7Z388) 0.003
EDC4 (UniProt Q6P2E9) -0.14
EEF1G isoform 2 (UniProt P26641) -0.053
DTD2 (UniProt Q96FN9) -0.112
EDF1 (UniProt O60869) 0.088
ECM1 isoform 4 (UniProt Q16610) 0.039
